Assay [1] concerns the target T1, GST-hMSTN 41-140aa (human) (UniProt O14793).
T1 sequence: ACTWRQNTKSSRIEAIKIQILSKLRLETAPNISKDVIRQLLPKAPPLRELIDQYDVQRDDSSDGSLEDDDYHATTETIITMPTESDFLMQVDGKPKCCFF
Put plainly: Western blot on GST tagged fragments. (In general: Immunoblotting shows a protein as a band on a membrane.)

In assay [2] the target is T2, GST-hMSTN 21-120aa (human) (UniProt O14793).
T2 sequence: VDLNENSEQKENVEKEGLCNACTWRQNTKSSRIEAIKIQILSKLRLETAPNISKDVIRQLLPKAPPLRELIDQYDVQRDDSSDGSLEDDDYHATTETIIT
Briefly: Western blot on GST tagged fragments.

Assay [3] deals with T3, GST-hMSTN 1-100aa (human) (UniProt O14793).
T3 sequence: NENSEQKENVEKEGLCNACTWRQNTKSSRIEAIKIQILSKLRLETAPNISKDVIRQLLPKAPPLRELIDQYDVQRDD
Briefly: Western blot on GST tagged fragments.

For assay [4], the target named is T4, recombinant mouse myostatin propeptide-Fc chimera protein (R&D Systems) (mouse) (UniProt O08689).
T4 sequence: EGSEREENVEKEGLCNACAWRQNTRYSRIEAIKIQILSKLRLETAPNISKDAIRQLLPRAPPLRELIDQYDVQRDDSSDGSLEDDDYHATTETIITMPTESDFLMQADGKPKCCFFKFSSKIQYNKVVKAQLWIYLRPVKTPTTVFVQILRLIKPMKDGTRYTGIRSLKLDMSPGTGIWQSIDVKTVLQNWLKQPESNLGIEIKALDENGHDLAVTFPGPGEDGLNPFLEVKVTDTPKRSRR
Put plainly: ELISA, biotinylated antigen (4 nM) on streptavidin plate, anti-human IgG-HRP. On the technique in general: ELISA stands for enzyme-linked immunosorbent assay.

Assay [5] addresses T5, GST-hMSTN 61-160aa (human) (UniProt O14793).
T5 sequence: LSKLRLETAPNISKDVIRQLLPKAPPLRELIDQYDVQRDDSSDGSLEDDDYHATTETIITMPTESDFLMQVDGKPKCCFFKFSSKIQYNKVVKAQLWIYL
Put plainly: Western blot on GST tagged fragments.

For assay [6], the target named is T6, GST-hMSTN 81-180aa (human).
T6 sequence: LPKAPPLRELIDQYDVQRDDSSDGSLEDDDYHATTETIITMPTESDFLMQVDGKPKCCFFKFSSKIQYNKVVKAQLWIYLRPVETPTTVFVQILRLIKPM
Briefly: Western blot on GST tagged fragments.

These are yes or no findings as the source states them, for the method shown. Some entries that bind do so weakly or less than the wild type. Tags and fused reporters may be left off the sequences shown.

B1: MST1572 (antibody, human IgG1, kappa, V domains shown)
VH: QSVEESGGRLVTPGTPLTLTCTVSGFSLSSYAMSWVRQAPGKGLEWIGIIYGVGSTYYASWAKGRFTISKTSTTVDLKIASPTTEDTATYFCARDDYGWGYTNLWGPGTLVTVSS
VL: QVLTQTPSSVSAAVGGTVTINCQSSQSVYNNNYLAWFQQKPGQPPKLLIYDASKLASGVPSRFKGSGSGTQFTLTISGVQCDDAATYYCQGSYYSSGWYRAFGGGTKVEIKR
As to B1, the binding result in assay [1], in assay [2] and in assay [3] was “binds” in each case.

B2: MST1538 (antibody, human IgG1, kappa, V domains shown)
VH: QSLEESGGGLVKPGGTLTLTCKASGIDFSSYYYMCWVRQAPGKGLEWIACIYAGISGSTYYASWAKGRFTISKTSSTTVTLQMTSLTAADTATYFCARDPYHFDYGSLWGPGTLVTVSS
VL: ALVMTQTPASVSAAVGGTVTINCQASQSVYGGNELSWYQQEPGQPPKLLIYSASKLASGVPSRFKGSGSGTQFTLTISGVQCDDAAAYYCAGYRTYSDDDNAFGGGTKVEIKR
As for B2, the binding entry in assay [1], in assay [2] and in assay [3] was “binds” in each case.

B3: MST1573 (antibody, human IgG1, kappa, V domains shown)
VH: QSVEESGGRLVTPGTPLTLTCTVSGIDLSSSSMIWVRQAPGEGLKYIGFISKSGYTYYASWAKGRFTISKTSTTVDLKITSPTTEDTATYFCARGGYSGDWDYFTLWGPGTLVTVSS
VL: DIVMTQTPASVEAAVGGTVTIKCQASESIGNALAWYQQKPGQPPKLLIYGAFNLESGVPSRFRGSGSGTEYTLTISDLECDDAATYYCQGYFWSSSTIYAFWAFGGGTKVEIKR
Take B3: the binding entry in assay [2] and in assay [3] was “binds” throughout.

B4: MS_MST1032Ha-G1m/MST1032La-k0MC (antibody, human IgG1, kappa, V domains shown)
VH: QSLEESGGRLVTPGGSLTVTCRVSGIDLSSYDISWVRQAPGKGLEWIGIISYAGSTYYASWAKGRFTISKTSTTVDLKMTSLTTEDTATYFCARGVPAYSTGGDLWGPGTLVTVSS
VL: AQVLTQTASSVSAAVGGTVTINCQSSQSVYDNNWLSWFQQKPGQPPKLLIYWASTLASGVPSRFKGSGSGTQFTLTISDLECDDAATYYCAGGYGGGLYAFGGGTKVEIKR
As for B4, the binding entry in assay [4] is reported as “binds”.

B5: MST1032 (as tested in Example 26) (antibody, V domains shown)
VH: QSLEESGGRLVTPGGSLTVTCRVSGIDLSSYDISWVRQAPGKGLEWIGIISYAGSTYYASWAKGRFTISKTSTTVDLKMTSLTTEDTATYFCARGVPAYSTGGDLWGPGTLVTVSS
VL: AQVLTQTASSVSAAVGGTVTINCQSSQSVYDNNWLSWFQQKPGQPPKLLIYWASTLASGVPSRFKGSGSGTQFTLTISDLECDDAATYYCAGGYGGGLYAFGGGTKVEIK
Consider B5, for which the binding entry in assay [5], in assay [1], in assay [2], in assay [3] and in assay [6] was “binds” in each case.

The values above are taken from patent US20200317768A1.
